Among the data in article PMC3513293 are binding values, retold here.

The assay has as its target p97/Valosin-containing protein (VCP), full length (UniProt P55072). The assay is described as follows: SPR; Biacore 3000; p97/VCP immobilised on CM5 (1000 RU in Figure 6); UN or p47 injected with 1 mM ATP (magnesium complex) during association and dissociation; 25°C, PBS; Interaction Map Analysis for UN; AMP-PNP strengthened UN binding much as ATP; both purified.

These are yes or no findings as the source states them, for the method shown. Some binding calls cover weakened binding; strength is not graded here.

B1: p47 (protein, UniProt O35987 1-370)
chain: MAEERQDALREFVAVTGAEEDRARFFLESAGWDLQIALASFYEDGGDEDIVTISQATPSSVSRGTAPSDNRVTSFRDLIHDQDEEEEEEEGQRFYAGGSERSGQQIVGPPRKKSPNELVDDLFKGAKEHGAVAVERVTKSPGETSKPRPFAGGGYRLGAAPEEESAYVAGERRRHSGQDVHVVLKLWKTGFSLDNGDLRSYQDPSNAQFLESIRRGEVPAELRRLAHGGQVNLDMEDHRDEDFVKPKGAFKAFTGEGQKLGSTAPQVLNTSSPAQQAENEAKASSSILINEAEPTTNIQIRLADGGRLVQKFNHSHRISDIRLFIVDARPAMAATSFVLMTTFPNKELADENQTLKEANLLNAVIVQRLT
Regarding B1, the binding entry is given as “binds”.
